Measured values: the supplement of paper PMC4862054
Most values lie at the level of the controls, where differences are scatter.

Legend:
Experiment in all cases: normalised response (% of control), CellTox Green; higher = less cell death (100 = DMSO, 0 = benzethonium chloride kill control)
Details in all cases: incubation time: 72 h
HCC1599 = system: HCC1599
Experimental: (§1)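 DSRT, 72 h incubation, CellTox Green / CellTiter-Glo readout. Signal is normalised to DMSO and benzethonium chloride controls. Value is the normalised response at dose 2.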

HDQ-P1 = system: HDQ-P1
Experimental: as §1

BT-474 = system: BT-474
Experimental: as §1

HCC1143 = system: HCC1143
Experimental: as §1

MFM-223 = system: MFM-223
Experimental: as §1

CAL-51 = system: CAL-51
Experimental: as §1

DU-4475 = system: DU-4475
Experimental: as §1

MDA-MB-453 = system: MDA-MB-453
Experimental: as §1

BT-549 = system: BT-549
Experimental: as §1

MDA-MB-436 = system: MDA-MB-436
Experimental: as §1

CAL-120 = system: CAL-120
Experimental: as §1

MCF-10A = system: MCF-10A
Experimental: as §1

CAL-85-1 = system: CAL-85-1
Experimental: as §1

CAL-148 = system: CAL-148
Experimental: as §1

MDA-MB-468 = system: MDA-MB-468
Experimental: as §1

HCC1937 = system: HCC1937
Experimental: as §1

Hs578T = system: Hs578T
Experimental: as §1

MDA-MB-231 = system: MDA-MB-231
Experimental: as §1

Nc1ncnc2c1c(COc1cccc(Cl)c1)nn2C1CCOCC1 (10 nM)
normalised response (HCC1599): 120% | normalised response (HDQ-P1): 113% | normalised response (BT-474): 106% | normalised response (HCC1143): 111% | normalised response (MFM-223): 106% | normalised response (CAL-51): 106% | normalised response (DU-4475): 113% | normalised response (MDA-MB-453): 106% | normalised response (BT-549): 101% | normalised response (MDA-MB-436): 96.1% | normalised response (CAL-120): 106% | normalised response (MCF-10A): 112% | normalised response (CAL-85-1): 105% | normalised response (CAL-148): 104% | normalised response (MDA-MB-468): 96.7% | normalised response (HCC1937): 104% | normalised response (Hs578T): 114%

COc1cc2c(cc1O)CC[C@@H]1[C@@H]2CC[C@]2(C)[C@@H](O)CC[C@@H]12 [2-methoxyestradiol] (10 nM)
normalised response (HCC1599): 102% | normalised response (HDQ-P1): 110% | normalised response (BT-474): 101% | normalised response (HCC1143): 109% | normalised response (MDA-MB-231): 88.4% | normalised response (MFM-223): 92.3% | normalised response (CAL-51): 94.8% | normalised response (DU-4475): 104% | normalised response (MDA-MB-453): 100% | normalised response (BT-549): 75.2% | normalised response (MDA-MB-436): 94.4% | normalised response (CAL-120): 98.5% | normalised response (MCF-10A): 106% | normalised response (CAL-85-1): 93.1% | normalised response (CAL-148): 96.4% | normalised response (MDA-MB-468): 71.3% | normalised response (Hs578T): 71%

COc1cc(OC2CCN(C)CC2)ccc1Nc1ncc2c(n1)n(C1CCCC1)c(=O)n2C [AZ 3146] (10 nM)
normalised response (HCC1599): 95.8% | normalised response (BT-474): 100% | normalised response (HCC1143): 105% | normalised response (MDA-MB-231): 102% | normalised response (MFM-223): 103% | normalised response (CAL-51): 106% | normalised response (DU-4475): 97.2% | normalised response (MDA-MB-453): 99% | normalised response (BT-549): 102% | normalised response (MDA-MB-436): 107% | normalised response (CAL-120): 99.1% | normalised response (MCF-10A): 71.1% | normalised response (CAL-85-1): 95.2% | normalised response (HCC1937): 99.4% | normalised response (Hs578T): 105%

CC[C@H](Nc1ncnc2[nH]cnc12)c1nc2cccc(F)c2c(=O)n1-c1ccccc1 [GS-1101] (10 nM)
normalised response (HCC1599): 93.8% | normalised response (HDQ-P1): 52.4% | normalised response (BT-474): 96.5% | normalised response (HCC1143): 112% | normalised response (MDA-MB-231): 77.6% | normalised response (MFM-223): 98.7% | normalised response (CAL-51): 83.5% | normalised response (DU-4475): 94% | normalised response (MDA-MB-453): 98.5% | normalised response (BT-549): 86.3% | normalised response (MDA-MB-436): 84.9% | normalised response (CAL-120): 99.5% | normalised response (MCF-10A): 94.6% | normalised response (CAL-85-1): 92.2% | normalised response (CAL-148): 100% | normalised response (MDA-MB-468): 56.7% | normalised response (HCC1937): 100%

O=NN(CCCl)C(=O)NC1CCCCC1 [Lomustine] (10 nM)
normalised response (HCC1599): 101% | normalised response (HDQ-P1): 114% | normalised response (BT-474): 101% | normalised response (HCC1143): 91.4% | normalised response (MDA-MB-231): 102% | normalised response (MFM-223): 64.8% | normalised response (CAL-51): 100% | normalised response (DU-4475): 99.3% | normalised response (MDA-MB-453): 93.6% | normalised response (BT-549): 101% | normalised response (CAL-120): 98.5% | normalised response (CAL-85-1): 107% | normalised response (CAL-148): 107% | normalised response (MDA-MB-468): 109% | normalised response (HCC1937): 105% | normalised response (Hs578T): 89.7%

Cn1cnc2c(F)c(Nc3ccc(Br)cc3F)c(C(=O)NOCCO)cc21 [MEK-162] (1 nM)
normalised response (HCC1599): 93.4% | normalised response (HDQ-P1): 111% | normalised response (BT-474): 95% | normalised response (HCC1143): 110% | normalised response (MDA-MB-231): 108% | normalised response (MFM-223): 103% | normalised response (CAL-51): 102% | normalised response (DU-4475): 97.3% | normalised response (MDA-MB-453): 99% | normalised response (BT-549): 96.9% | normalised response (CAL-120): 100% | normalised response (MCF-10A): 102% | normalised response (CAL-85-1): 93.6% | normalised response (CAL-148): 104% | normalised response (MDA-MB-468): 73.7% | normalised response (HCC1937): 95.8% | normalised response (Hs578T): 116%

O=C1c2c(O)ccc(O)c2C(=O)c2c(NCCNCCO)ccc(NCCNCCO)c21 [Mitoxantrone] (1 nM)
normalised response (HCC1599): 98.3% | normalised response (HDQ-P1): 119% | normalised response (BT-474): 101% | normalised response (MDA-MB-231): 110% | normalised response (MFM-223): 102% | normalised response (CAL-51): 77.1% | normalised response (DU-4475): 96.1% | normalised response (MDA-MB-453): 91.7% | normalised response (BT-549): 108% | normalised response (MDA-MB-436): 77.4% | normalised response (CAL-120): 98.9% | normalised response (CAL-85-1): 102% | normalised response (CAL-148): 52.3% | normalised response (MDA-MB-468): 74.1% | normalised response (HCC1937): 93.6% | normalised response (Hs578T): 115%

N#CCNC(=O)c1ccc(-c2ccnc(Nc3ccc(N4CCOCC4)cc3)n2)cc1 [Momelotinib] (10 nM)
normalised response (HCC1599): 90.9% | normalised response (HDQ-P1): 54.7% | normalised response (BT-474): 100% | normalised response (HCC1143): 102% | normalised response (MDA-MB-231): 91.2% | normalised response (MFM-223): 79.1% | normalised response (CAL-51): 64.8% | normalised response (DU-4475): 94.3% | normalised response (MDA-MB-453): 95.3% | normalised response (BT-549): 107% | normalised response (CAL-120): 95.6% | normalised response (MCF-10A): 104% | normalised response (CAL-85-1): 102% | normalised response (CAL-148): 87.4% | normalised response (MDA-MB-468): 130% | normalised response (HCC1937): 108% | normalised response (Hs578T): 76.3%

CS(=O)(=O)N1CCN(Cc2cc3nc(-c4cccc5[nH]ncc45)nc(N4CCOCC4)c3s2)CC1 [Pictilisib] (10 nM)
normalised response (HCC1599): 111% | normalised response (HDQ-P1): 116% | normalised response (BT-474): 102% | normalised response (HCC1143): 114% | normalised response (MDA-MB-231): 101% | normalised response (MFM-223): 98.4% | normalised response (CAL-51): 105% | normalised response (DU-4475): 108% | normalised response (MDA-MB-453): 103% | normalised response (BT-549): 99% | normalised response (MDA-MB-436): 94.9% | normalised response (CAL-120): 101% | normalised response (MCF-10A): 113% | normalised response (CAL-85-1): 95.1% | normalised response (CAL-148): 101% | normalised response (HCC1937): 112% | normalised response (Hs578T): 111%

CCN(CC)CCNC(=O)c1c(C)[nH]c(/C=C2\C(=O)Nc3ccc(F)cc32)c1C [Sunitinib] (1 nM)
normalised response (HCC1599): 112% | normalised response (HDQ-P1): 118% | normalised response (BT-474): 101% | normalised response (HCC1143): 118% | normalised response (MDA-MB-231): 110% | normalised response (MFM-223): 89.2% | normalised response (CAL-51): 116% | normalised response (DU-4475): 110% | normalised response (MDA-MB-453): 94.2% | normalised response (BT-549): 95.4% | normalised response (MDA-MB-436): 95.9% | normalised response (CAL-120): 105% | normalised response (MCF-10A): 115% | normalised response (CAL-85-1): 94.1% | normalised response (CAL-148): 101% | normalised response (MDA-MB-468): 100% | normalised response (Hs578T): 122%
